Here are results for one molecule from paper PMC4792581.

Sequences of proteins named here, by UniProt entry; tags and fusion partners are left off. A change or cut given only in a name is not applied to a line headed by its entry.
UniProt P10415: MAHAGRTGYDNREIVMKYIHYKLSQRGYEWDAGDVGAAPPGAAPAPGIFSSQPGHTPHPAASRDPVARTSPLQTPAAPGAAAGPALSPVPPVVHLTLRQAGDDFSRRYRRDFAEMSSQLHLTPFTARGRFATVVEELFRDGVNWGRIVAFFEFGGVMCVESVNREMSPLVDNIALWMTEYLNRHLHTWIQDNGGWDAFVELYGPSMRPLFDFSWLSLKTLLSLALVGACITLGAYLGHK

The target of the assay is Bcl2 with deleted BH3 domain (human) (UniProt P10415). Kind of assay: co-IP; HEK293T transfected with vector, Bcl2 WT or mutant plasmids; MG132 (10 μM) for 6 h before lysis; lysates immunoprecipitated and blotted.

Results are given in words; binding and its absence hold for the method and conditions named. Binding seen in cells or lysates may run through a third protein.

B1: PPARα (peroxisome-proliferator-activated receptor α), endogenous (protein, UniProt Q07869 1-468)
chain: MVDTESPLCPLSPLEAGDLESPLSEEFLQEMGNIQEISQSIGEDSSGSFGFTEYQYLGSCPGSDGSVITDTLSPASSPSSVTYPVVPGSVDESPSGALNIECRICGDKASGYHYGVHACEGCKGFFRRTIRLKLVYDKCDRSCKIQKKNRNKCQYCRFHKCLSVGMSHNAIRFGRMPRSEKAKLKAEILTCEHDIEDSETADLKSLAKRIYEAYLKNFNMNKVKARVILSGKASNNPPFVIHDMETLCMAEKTLVAKLVANGIQNKEAEVRIFHCCQCTSVETVTELTEFAKAIPGFANLDLNDQVTLLKYGVYEAIFAMLSSVMNKDGMLVAYGNGFITREFLKSLRKPFCDIMEPKFDFAMKFNALELDDSDISLFVAAIICCGDRPGLLNVGHIEKMQEGIVHVLRLHLQSNHPDDIFLFPKLLQKMADLRQLVTEHAQLVQIIKKTESDAALHPLLQEIYRDMY
On to B1, for which the binding result was “no binding”.
